Results from US20160333019A1, “SYNTHESIS AND FORMULATIONS OF PORPHYRIN COMPOUNDS” (Aeolus Sciences, Inc., priority 2013, published 2016).
At least one compound was matched to its structure with a doubt left.

Assay: Humidity stability of Form I, dynamic vapor sorption and equilibrium water uptake
Assay type: physicochemical
Conditions: solid equilibrated at 50% relative humidity; between 15-75% RH; 25° C.
Description: Dynamic Vapor Sorption (DVS). Samples were analyzed using an […]™ DVS-2 gravimetric water sorption analyzer. The relative humidity was adjusted between 2-95% and the weight of sample was continuously monitored and recorded.
Humidity Stability of Form I. Form I was exposed to a typical relative humidity range that most labs will experience e.g. 15-75% at 25° C. Initially the chamber relative humidity was adjusted at 50%. Then the RH was cycled between 15 to 75% and weight was monitored. FIG. 18 illustrates the changes in weight as a function of relative humidity. If the solid is equilibrated at 50% relative humidity the variation in weight would about ±2 wt % between 15-75% RH. Furthermore, an equilibrium study was performed at various relative humidity environments for extended time. Table 5.6 show the equilibrium % water uptake at various humidity levels.

CCn1cc[n+](CC)c1-c1c2nc(c(-c3n(CC)cc[n+]3CC)c3ccc([n-]3)c(-c3n(CC)cc[n+]3CC)c3nc(c(-c4n(CC)cc[n+]4CC)c4ccc1[n-]4)C=C3)C=C2.O.[Cl-].[Cl-].[Cl-].[Cl-].[Cl-].[Mn+3] [Form I, [5,10,15,20-tetrakis(1,3-diethylimidazolium-2-yl)porphyrinato]manganese(III) chloride hydrate complex]
variation in weight: about ±2 wt %
